Results on 15 molecules are retold here after PubChem BioAssay (NCATS).

Some of the results follow. Further columns of the screen follow, without active or inactive calls. The list favours compounds with an active or inconclusive main result.

The nature of this assay: qHTS for identification of novel therapeutic agents for treatment of microphthalmiaassociated transcription factor (MiT) renal cell carcinoma (RCC) (AID 1963991). To be noted: TFE3-RCC UOK109 viability, CellTiter-Glo, 48 h; measured here: UOK109 Z-AUC; stronger effect = lower value. Put shortly: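 Curves over 11 concentrations were fitted to CellTiter-Glo luminescence, scaled between empty wells (0%) and DMSO (100%) viability. Cells were UOK109, UOK124 and UOK145 TFE3-fusion RCC lines at 500/well, exposed 48 hours at 37 C.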
(qHTS replaces the single test concentration by a dilution series.)
Take `COc1cccc([C@@H](C)NCCCc2ccccc2Cl)c1`: the z-score is 0.67.

Molecule `Cc1cn(-c2cc(NC(=O)c3ccc(C)c(Nc4nccc(-c5cccnc5)n4)c3)cc(C(F)(F)F)c2)cn1` returned a z-score of -0.0264.

In turn, `CN(C)C(=O)c1ccc(S(=O)(=O)c2ccc(NC(=O)[C@@](C)(O)C(F)(F)F)c(Cl)c2)cc1` had a z-score of -0.0315.

`O=C(N[C@@H](c1ccccc1)[C@@H]1CCCCN1)c1cccc(C(F)(F)F)c1Cl` yielded a z-score of 0.696.

As for `O=C(O)c1ccc(Nc2ncc3c(n2)-c2ccc(Cl)cc2C(c2c(F)cccc2F)=NC3)cc1`, the z-score is -0.942.

`CC(=O)Nc1nc(C)c(-c2ccc(Cl)c(S(=O)(=O)NCCO)c2)s1` had a z-score of -0.551.

The molecule `CN1c2ccccc2C(=O)N2CCc3c([nH]c4ccccc34)C21` (stereo not given) returned a z-score of 1.03.

For `NC(=O)c1ccc(-c2nc(-c3ccc4c(c3)OCCO4)c(-c3ccccn3)[nH]2)cc1`, the z-score was found to be 0.839.

Turning to `N#CC(c1ccc(Cl)cc1)c1c(Cl)cc(-n2ncc(=O)[nH]c2=O)cc1Cl` (stereo not given), the z-score came to 0.156.

Molecule `COc1cc(F)c(F)c(Nc2ccc(I)cc2F)c1NS(=O)(=O)C1(C[C@H](O)CO)CC1` displayed a z-score of 0.402.

Molecule `CCc1cc(Nc2nccc(-c3c(-c4ccc(OC)c(C(=O)Nc5c(F)cccc5F)c4)nc4ccccn34)n2)c(OC)cc1N1CCC(N2CCN(S(C)(=O)=O)CC2)CC1` had a z-score of -0.64.

For `COc1cc(Oc2ccnc3cc(OC)c(OC)cc23)ccc1NC(=O)NC(C)c1nccs1` (stereo not given), the z-score worked out at 0.975.

The molecule `NS(=O)(=O)c1ccc(NC2=CC(=O)c3ccccc3C2=O)cc1` showed a z-score of -0.307.

`Cc1ccc(C2=Nc3ccc(Cl)cc3OC2)cc1` showed a z-score of 0.85.

`CCn1c(-c2nonc2N)nc2cnc(Oc3cccc(NC(=O)c4ccc(OCCN5CCOCC5)cc4)c3)cc21`: the z-score is 0.804.
